{"source": "PubChem BioAssay AID504764 (Drosophila RNAi Screening Center, 2011)", "test": "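Knock-downs that raise or lower a Notch target reporter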 (primary screen)", "system": "Drosophila Kc167 cells", "knock-down reagent": "long dsRNA against Drosophila genes", "timing": "about 5 days (4 days dsRNA, then 24 h after transfection)", "treatment": "transfection of constitutively active membrane-tethered Notch lacking the extracellular domain, read 24 h later", "measured": "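Firefly luciferase from an E(spl)m3 reporter with active Notch, plus control-promoter and uninduced reporter wells for normalisation; unnormalised counts, duplicate wells a and b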", "reading the numbers": "induced reporter light, run 1, well a and induced reporter light, run 1, well b: higher = more light from the Notch target reporter with active Notch; control promoter light, run 1, well a and control promoter light, run 1, well b: higher = more light from the viral control promoter (cell number, transfection, viability); uninduced reporter light, run 1, well a: higher = more light from the Notch target reporter without active Notch", "call rule": "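Wells with low control signal or poorly matching duplicates excluded; duplicates averaged; per source plate, z beyond ±2 for induced/control log2 ratio or beyond ±1.8 for induced/uninduced marks a hit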", "meaning of the calls": "active = modifier hit (raised or lowered Notch signal); inactive = not a hit", "note": "The screen tested about 22,000 reagents; below is an unselected part of those that have a named target and a result. Of all reagents, 403 (1.9%) got an active call. 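Unnormalised raw counts per well; ratio z-scores behind the hit calls and whether each hit raises or lowers signal are not deposited.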 Entries without a mark were called inactive. The record does not give: the amount of reagent."}
{"gene": "CG15712 (GeneID 36843)", "dsRNA": "DRSC06583", "induced reporter light, run 1, well a": 1.68e5, "induced reporter light, run 1, well b": 1.34e5, "control promoter light, run 1, well a": 1.28e5, "control promoter light, run 1, well b": 1.06e5, "uninduced reporter light, run 1, well a": 14550}
{"gene": "mmm (GeneID 38851)", "dsRNA": "DRSC10208", "induced reporter light, run 1, well a": 2.30e5, "induced reporter light, run 1, well b": 2.39e5, "control promoter light, run 1, well a": 3.10e5, "control promoter light, run 1, well b": 3.27e5, "uninduced reporter light, run 1, well a": 17240}
{"gene": "Fadd (GeneID 42594)", "dsRNA": "DRSC14122", "induced reporter light, run 1, well a": 1.55e5, "induced reporter light, run 1, well b": 1.61e5, "control promoter light, run 1, well a": 2.26e5, "control promoter light, run 1, well b": 2.10e5, "uninduced reporter light, run 1, well a": 13065}
{"gene": "CG15429 (GeneID 33637)", "dsRNA": "DRSC00444", "induced reporter light, run 1, well a": 2.47e5, "induced reporter light, run 1, well b": 1.88e5, "control promoter light, run 1, well a": 3.17e5, "control promoter light, run 1, well b": 2.64e5, "uninduced reporter light, run 1, well a": 11428}
{"gene": "Or82a (GeneID 318778)", "dsRNA": "DRSC11996", "induced reporter light, run 1, well a": "2.02e5 (active)", "induced reporter light, run 1, well b": 2.08e5, "control promoter light, run 1, well a": 2.87e5, "control promoter light, run 1, well b": 2.83e5, "uninduced reporter light, run 1, well a": 21680}
{"gene": "Ndae1 (GeneID 34005)", "dsRNA": "DRSC00975", "induced reporter light, run 1, well a": 2.07e5, "induced reporter light, run 1, well b": 2.08e5, "control promoter light, run 1, well a": 2.32e5, "control promoter light, run 1, well b": 2.22e5, "uninduced reporter light, run 1, well a": 11885}
{"gene": "Ndae1 (GeneID 34005)", "dsRNA": "DRSC02770", "induced reporter light, run 1, well a": 1.95e5, "induced reporter light, run 1, well b": 1.64e5, "control promoter light, run 1, well a": 1.49e5, "control promoter light, run 1, well b": 1.94e5, "uninduced reporter light, run 1, well a": 16915}
{"gene": "CG1137 (GeneID 40803)", "dsRNA": "DRSC12529", "induced reporter light, run 1, well a": 83940, "induced reporter light, run 1, well b": 87705, "control promoter light, run 1, well a": 98655, "control promoter light, run 1, well b": 65770, "uninduced reporter light, run 1, well a": 5360}
{"gene": "CG11269 (GeneID 37527)", "dsRNA": "DRSC04094", "induced reporter light, run 1, well a": 41495, "induced reporter light, run 1, well b": 37220, "control promoter light, run 1, well a": 36455, "control promoter light, run 1, well b": 32735, "uninduced reporter light, run 1, well a": 1765}
{"gene": "CG15098 (GeneID 37174)", "dsRNA": "DRSC06527", "induced reporter light, run 1, well a": 42220, "induced reporter light, run 1, well b": 32155, "control promoter light, run 1, well a": 32910, "control promoter light, run 1, well b": 39950, "uninduced reporter light, run 1, well a": 3875}
{"gene": "shps (GeneID 42892)", "dsRNA": "DRSC14614", "induced reporter light, run 1, well a": 1.39e5, "induced reporter light, run 1, well b": 1.11e5, "control promoter light, run 1, well a": 1.45e5, "control promoter light, run 1, well b": 1.60e5, "uninduced reporter light, run 1, well a": 10732}
{"gene": "Osi1 (GeneID 40752)", "dsRNA": "DRSC12271", "induced reporter light, run 1, well a": 80580, "induced reporter light, run 1, well b": 1.03e5, "control promoter light, run 1, well a": 84240, "control promoter light, run 1, well b": 83775, "uninduced reporter light, run 1, well a": 6110}

Part of the list above, reduced to “induced reporter light, run 1, well b”.
Ndae1 (GeneID 34005) [DRSC00975]	2.08e5
Ndae1 (GeneID 34005) [DRSC02770]	1.64e5
